The record followed here is patent US7741124B2, “Detection procedures for fibrinogen and/or fibrinogen derivatives” (priority 2003, dated 2010).

The data set has as its system β2 fraction (fibrinogen) of plasma. Put plainly: Electrophoresis of plasma that had been incubated with vancomycin. Format: biochemical. On the procedure:
950 μl P-Pool were incubated with 50 μl 0-200 mM (0-10 mM final conc.) vancomycin for 5 min (RT). Then electrophoreses of the samples and of the solubilized precipitate of 2.10. were performed and the total protein concentrations in the treated samples were determined.

Regarding `CN[C@H](CC(C)C)C(=O)N[C@H]1C(=O)N[C@@H](CC(N)=O)C(=O)N[C@H]2C(=O)N[C@H]3C(=O)N[C@H](C(=O)N[C@H](C(=O)O)c4cc(O)cc(O)c4-c4cc3ccc4O)[C@H](O)c3ccc(c(Cl)c3)Oc3cc2cc(c3O[C@@H]2O[C@H](CO)[C@@H](O)[C@H](O)[C@H]2O[C@H]2C[C@](C)(N)[C@H](O)[C@H](C)O2)Oc2ccc(cc2Cl)[C@H]1O` [vancomycin], the total protein concentration was 59.1 g/L (0.29 mM vancomycin); 58.6 g/L (0.44 mM vancomycin); 59.1 g/L (0.66 mM vancomycin); 58.4 g/L (0.99 mM vancomycin); 57.0 g/L (1.48 mM vancomycin); 57.8 g/L (2.22 mM vancomycin). In addition, the “β2 peak, in words” value (5 mM vancomycin in plasma) was “disappears completely”.
